A short description of series [1]: Acute toxicity LD50, mouse i.v. The conditions noted are these: in vivo, iv, Maus (i.v.), read-out: LD₅₀. From the text:
(§1) Die hohe antiarrhythmische Wirksamkeit ist nicht begleitet von einer signifikanten Toxizitätssteigerung im Vergleich zu Propafenon. Dies ergibt sich aus einem Vergleich der LD₅₀-Werte bei Ratten und Mäusen, die in Tabelle (II) zusammengefaßt sind. Tabelle I

Series [2] in a line: Acute toxicity LD50, rat i.v. The note with it: in vivo, iv, Ratte (i.v.), read-out: LD₅₀.
From the text: as §1

Each structure is given as a SMILES string.

For `CCCNCC(O)COc1ccccc1C(=O)CCc1ccccc1` (centres unmarked) [A, Propafenon, reference compound], the figures for the LD50 in series [1] and in series [2] were 18 mg/kg and 16 mg/kg, respectively.

The values above are taken from patent EP0296592A2, “Aminopropanol derivatives of 3-(2-hydroxyphenyl)-1-propanone, process for their preparation and medicines containing these compounds” (Helopharm W. Petrik GmbH & Co.KG., priority 1987, dated 1988).
